Consider 68 sequences from PubChem BioAssay AID1508600 (Functional Genomics Laboratory (NCATS/FGL), 2020).

The whole screen tested about 53,000 sequences, of which about 3,700 (7%) were called active.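 How the source made its calls: active means gene knockdowns whose robust z-score for IL-1 alpha signal is at least 2 or at most -2, so actives lie on both sides; inactive means the rest.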 This is one part of the list.

This experiment in a line: Components of the Cytosolic LPS Sensing Pathway: Gene Identification via Genome-wide siRNA Screen.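 Further: robust z of the log signal after scaling to non-targeting control siRNA wells of the plate.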 To be noted: RAW264.7 macrophages, IL-1a HTRF, actives lie on both sides, screened at 100 nM (by protocol), cells primed 5 h with Pam3CSK4 first. The method, boiled down: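 Supernatant IL-1a by HTRF from RAW264.7 cells primed with Pam3CSK4 (5 hours) and transfected with LipidA (24 hour) after 48h siRNA knockdown at 100 nM; cell viability checked with CellTiter-Glo.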
On to GCUGCUGUGGUUCUAGUUGTT against Krtap4-2, for which the z-score is inactive: 0.574. In the case of CCUUAUUCUGGAAUACCUGTT against Noc2l, the z-score is inactive: 0.622. For the sequence CGAAGUCAAGCAGAAAAGATT against C1qtnf1, the z-score was inactive: -0.892. With CGAUUUAAAGUAGUAGUGGTT against Dusp28, the z-score is inactive: -1.13. As for GGAAUGCAUCACAAAACUUTT against Lancl2, the figure is inactive: 0.24; as for GGCUAAGACCAAAACUUUATT against Cyp4f13, inactive: 0.772; as for “CCGUUUUGUCUGAAUUCCCTT against 4930515G01Rik”, active: -2.14. In the case of GCCAUCUACUUUGUUAUAGTT against Kcnk4, the z-score was inactive: 0.725. For CGCGUUGACAUACAUAAAATT against Coq5, the z-score is inactive: -0.102. The value for GCACUUGUGACUAUAAAGUTT against Celf2 was inactive: 0.262; that for GGACAAGGCUGCUACUUCATT against Pou6f2 was inactive: 1.74.

Take GGAUCACUUUGACCACAACTT against Rab31: the z-score is inactive: 1.43. Consider GGAAAGAAGCCAAAGAAAUTT against Spata4, for which the z-score is inactive: -1.32. GCUUGCUCAGGGAUUUUUATT against Rb1cc1: the z-score is inactive: 1.35. In the case of CCCGAGAAUACACCAUCAATT against Rpl31, the z-score is inactive: 0.347. As for ACUGGCCGGGAUUACAGAUTT against Ang3, the figure is inactive: 0.566; as for GGACUUCCAGAGCUGUUUUTT against Sinhcaf, inactive: -1.29. Take “GGACCAGAGGAAGAUUCCCTT against 1700020D05Rik”: the z-score was inactive: 0.469.

Consider GGGUGUAACUGUGAGAUAATT against Kmt5a, for which the z-score is inactive: 0.265.

On to CCACGUUGUCAUAAUAAACTT against Mrpl13, for which the z-score was inactive: 0.688. As for GGCAAUGCUAGGUGAGGAATT against Olfr157, the figure is inactive: -0.215; as for GGUCUCUGUUGCUUUGACUTT against Tgoln1, active: 4.13; as for GGCUCCUUUCGAAAGUAAATT against BC051142, inactive: 0.467. The value for CCGUGUCUUCCAUAUUGGUTT against Trip6 was inactive: -0.247; that for CGGAGCUGUUGGUAAAACCTT against Rac1 was inactive: -0.0361; that for GGAAGAAAAACUUGUCUCCTT against Copa was inactive: 0.25. Regarding GGCUGUGUCAUCACCAUCUTT against Acot7, the z-score is inactive: -1.31. Turning to GGACAGUUUGGUACCAGUGTT against Lime1, the z-score was inactive: 0.0297. As to GGUAUACAUGCUUCUCUCUTT against Olfr610, the z-score was inactive: -0.569. Take GCAAUAUACACCAUAUUGGTT against Panx3: the z-score is inactive: 0.544. Turning to GGAAAGGAUAAAGUAUAUCTT against Aspm, the z-score is inactive: -0.0167.

CGAAACUAGGAUUGAGGAGTT against Ece1: the z-score is inactive: -0.488. As for “CGAUUCUGCUACCUAUAGATT against 2810408A11Rik”, the figure is inactive: 0.62; as for GGAAAAAAAGGUGAAAACCTT against Ttc16, inactive: 1.73; as for “GCCACAAACCAAUGGUUUGTT against B230219D22Rik”, inactive: 0.121. For CCUUUGAGCCAGUUAUUUATT against Slc25a27, the z-score is inactive: 0.366.

In the case of GGAAGUGCUGUUCUUGGGCTT against Smug1, the z-score is inactive: -0.0427.

For the sequence GCAUUAGGUAUUACUACCUTT against Fate1, the z-score was inactive: -0.00485. As for CCGAAAUUUUGAGUACUGUTT against Vmn1r67, the figure is inactive: 0.285. In the case of GGUAUUCAGUAAUACAGUUTT against Igf2bp3, the z-score is inactive: 1.04. With GGUUUUCACGUGCUGCUGATT against Chd1l, the z-score was inactive: -1.2. Turning to GGUGUUGUUCCCUGUAAUATT against Serinc1, the z-score is inactive: 0.995. As to GCGGAGUGUGAAACACUGATT against Ccdc32, the z-score was inactive: 0.842.

For GCCAGUUUGCUGAUGGUUGTT against Tmem14c, the z-score is inactive: 0.155. GGACAUAUUUCCAACAUGUTT against Mob3b: the z-score was inactive: -1.34. For the sequence GGCAGGACGAACAUGGCUATT against Hspb1, the z-score is inactive: 1.2. Consider GGAAUGAACAUCAUUGUUUTT against Sms, for which the z-score was inactive: 0.991. Consider GCAAUUACAGGAGGAAUUATT against Orc3, for which the z-score was active: 2.86. On to GGAGUUGAGGGUCUCAUUCTT against Nphp1, for which the z-score is inactive: -1.72.

For the sequence GGGCAUUGAUCACAGUGUATT against Bcl3, the z-score is inactive: -1.94. Regarding GGAUAUCUGAGACAGGUUUTT against Arf4, the z-score was inactive: -1.71. In the case of CCAUGAGUUCAGAUGAUGATT against Ints10, the z-score was inactive: -1.11. The value for CCAUCACCGAAGCAUUAAATT against Lypd9 was inactive: -0.553; that for GGAGAAGCUCUUAAAGAAATT against Traf3ip3 was inactive: 0.959. For the sequence GGUGCUUAUACUUCUUUGUTT against Sgcz, the z-score was active: -2.42.

For the sequence “CAACAUCUAAACCCAAGAGTT against 1700010D01Rik”, the z-score is inactive: -1.1. The value for GAGAACAAGCCUAAGCCCATT against V1rb5 was inactive: 1.44; that for CCACAUAUUUAUCUCCCUGTT against Mrpl33 was inactive: 0.553; that for CCUGCUCUCCUCAUUAUGUTT against Rnls was inactive: -0.115.

In the case of CCUUCAUUGUGAUUGACAUTT against Ptpn11, the z-score is inactive: -0.55.

With GGUCAUGCUGAUCAGCGACTT against Itfg2, the z-score is inactive: -0.564. The value for GCUUCUAAGCCGAAGGCCATT against H1f3 was inactive: 0.274. The value for GGACAGAUCUUUUUGGUUUTT against Olfr295 was inactive: -1.17; that for GGAAGAUGAGGACACCAUGTT against Eva1b was inactive: -1.83. In the case of CCGGCACUAUGAGAAGAAGTT against Lims2, the z-score is inactive: 0.919.

Regarding GGAACUAACAUCACACCGATT against Ifnz, the z-score was inactive: 0.811. As for GCUAUGUCAUAGUUCAGCCTT against Khdc3, the z-score was inactive: -0.154. For the sequence GCCCAGUGAUUGGAAACGATT against Tbc1d2b, the z-score was inactive: 0.123.
